Results from patent publication US6107275A (Merrell Pharmaceuticals Inc., priority 1997, dated 2000).

Assay: general procedure: Boc solid-phase peptide synthesis; oxime resin
Conditions: whole synthesis, CF3CO2H (TFA) salt

Cyclo[Ala.PSI.[CH2 NH]-Arg(N^g -Tos)-Gly-Asp(β-Chxl)-δ-Glu](α-NHBn)
crude mass: 269 mg | crude yield (scale of the general procedure 0.5 mmol): 68%
